Data as given in PubChem BioAssay AID1159578 (Peter MacCallum Cancer Centre, 2015)

Aim: 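siRNA pools altering how lymphatic endothelial cells close a scratch wound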 (primary screen)
Cell system: human lymphatic endothelial cells
Reagents: siRNA pool against human genes, 40 nM
Timing: 48 h after transfection
Measured: 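High-content imaging of dye-stained cells in a scratch assay measures filled wound area and nuclei per well; duplicate means given as ratio to mock and robust z-score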
Direction: migration robust z-score: higher = faster migration into the scratch; migration relative to mock: higher = more scratch area covered than mock; nuclei per well: higher = more cells in the well
Call rule: 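Migration changed when robust z exceeds 2 or falls below -2 and mean nuclei number is at least 3300; otherwise not called changed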
Meaning of the calls: active = migration changed; inactive = no migration change, or too few cells
The whole screen tested about 18,000 reagents; this is a part drawn at random. In the full data, about 1,030 (5.7%) got an active call. 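Inactive calls also include pools with fewer than 3300 nuclei, whose migration was not assessed.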 The raw values are shown without normalisation. Unmarked entries are inactive. The numbers tell different reagents against one gene apart.

gene symbol	pool no.	migration robust z-score	migration class with cell-count check	migration relative to mock	nuclei per well, duplicate mean
CDON (cell adhesion associated, oncogene regulated)	1	-0.24	migration z between -2 and 2; enough cells	0.82	5364
SHROOM2 (shroom family member 2)	1	-0.34	migration z between -2 and 2; enough cells	0.74	4218
CACNG1 (calcium voltage-gated channel auxiliary subunit gamma 1)	1	-0.75	migration z between -2 and 2; enough cells	0.66	5312
RAB7A (RAB7A, member RAS oncogene family)	1	-0.62	migration z between -2 and 2; enough cells	0.68	6298
PLAUR (plasminogen activator, urokinase receptor)	1	0.83	migration z between -2 and 2; enough cells	0.96	5302
HPCAL4 (hippocalcin like 4)	1	-0.94	under 3300 nuclei; migration not judged	0.64	3149
CIP2A (cellular inhibitor of PP2A)	1	-1.07	migration z between -2 and 2; enough cells	0.61	5719
GAGE6 (G antigen 6)	1	-0.92	migration z between -2 and 2; enough cells	0.64	5084
NPLOC4 (NPL4 homolog, ubiquitin recognition factor)	1	-0.4	migration z between -2 and 2; enough cells	0.78	6754
DCDC2 (doublecortin domain containing 2)	1	0.88	migration z between -2 and 2; enough cells	1.12	5820
S100A8 (S100 calcium binding protein A8)	1	-2.88 (active)	migration z below -2; enough cells	0.14	5343
COX18 (cytochrome c oxidase assembly factor COX18)	1	-0.01	migration z between -2 and 2; enough cells	0.88	5154
GPATCH2L (G-patch domain containing 2 like)	1	0.82	migration z between -2 and 2; enough cells	1.1	5668
KCNQ4 (potassium voltage-gated channel subfamily Q member 4)	1	-0.46	migration z between -2 and 2; enough cells	0.72	5479
HSPB7 (heat shock protein family B (small) member 7)	1	0.07	migration z between -2 and 2; enough cells	0.9	5020
FAM234A (family with sequence similarity 234 member A)	1	-1.66	migration z between -2 and 2; enough cells	0.45	6712
AKNAD1 (AKNA domain containing 1)	1	0.04	migration z between -2 and 2; enough cells	0.89	6283
LTF (lactotransferrin)	1	0.16	migration z between -2 and 2; enough cells	0.84	5332
NRBP1 (nuclear receptor binding protein 1)	1	0.6	migration z between -2 and 2; enough cells	0.92	5578
MGP (matrix Gla protein)	1	-0.7	migration z between -2 and 2; enough cells	0.7	5873
ADAMTS20 (ADAM metallopeptidase with thrombospondin type 1 motif 20)	1	0.36	migration z between -2 and 2; enough cells	0.88	5740
MFHAS1 (multifunctional ROCO family signaling regulator 1)	1	-0.39	migration z between -2 and 2; enough cells	0.73	5646
CYP4A22 (cytochrome P450 family 4 subfamily A member 22)	1	1.09	migration z between -2 and 2; enough cells	1.02	5420
PTPN20 (protein tyrosine phosphatase non-receptor type 20)	1	0.68	migration z between -2 and 2; enough cells	0.94	4429
PTPN20 (protein tyrosine phosphatase non-receptor type 20)	2	0.34	migration z between -2 and 2; enough cells	0.87	4152
TMEM71 (transmembrane protein 71)	1	-2.44 (active)	migration z below -2; enough cells	0.25	5058
SCARB1 (scavenger receptor class B member 1)	1	-1.06	migration z between -2 and 2; enough cells	0.6	6238
S100A7 (S100 calcium binding protein A7)	1	-0.06	migration z between -2 and 2; enough cells	0.86	6102
TAF6L (TATA-box binding protein associated factor 6 like)	1	0.2	migration z between -2 and 2; enough cells	0.84	5968
CAPN6 (calpain 6)	1	0.38	migration z between -2 and 2; enough cells	0.88	5174
CCT7 (chaperonin containing TCP1 subunit 7)	1	-0.23	migration z between -2 and 2; enough cells	0.76	6090
RNF11 (ring finger protein 11)	1	-0.86	migration z between -2 and 2; enough cells	0.64	6190
MICU2 (mitochondrial calcium uptake 2)	1	-1.25	migration z between -2 and 2; enough cells	0.56	5967
RP1L1 (RP1 like 1)	1	-0.77	migration z between -2 and 2; enough cells	0.68	5236
MRPL45 (mitochondrial ribosomal protein L45)	1	1.04	migration z between -2 and 2; enough cells	1.15	5355
ZNF793 (zinc finger protein 793)	1	-0.07	migration z between -2 and 2; enough cells	0.87	5410
NDUFB7 (NADH:ubiquinone oxidoreductase subunit B7)	1	0.34	migration z between -2 and 2; enough cells	0.87	4784
KLC2 (kinesin light chain 2)	1	0.4	migration z between -2 and 2; enough cells	0.99	5943
ARHGAP21 (Rho GTPase activating protein 21)	1	-1.16	migration z between -2 and 2; enough cells	0.59	4724
RGS10 (regulator of G protein signaling 10)	1	-1.02	migration z between -2 and 2; enough cells	0.62	4136
B4GAT1 (beta-1,4-glucuronyltransferase 1)	1	-0.18	migration z between -2 and 2; enough cells	0.77	4776
ATP8B2 (ATPase phospholipid transporting 8B2)	1	-1.5	migration z between -2 and 2; enough cells	0.52	4270
MATN3 (matrilin 3)	1	0.13	migration z between -2 and 2; enough cells	0.92	5799
NPY (neuropeptide Y)	1	0.44	migration z between -2 and 2; enough cells	0.89	5391
ZNF835 (zinc finger protein 835)	1	-1.27	migration z between -2 and 2; enough cells	0.55	4174
GEM (GTP binding protein overexpressed in skeletal muscle)	1	-0.88	migration z between -2 and 2; enough cells	0.64	6318
HLA-L (major histocompatibility complex, class I, L (pseudogene))	1	0.24	migration z between -2 and 2; enough cells	0.94	5832
FLNC (filamin C)	1	1.35	migration z between -2 and 2; enough cells	1.06	3644
TPMT (thiopurine S-methyltransferase)	1	-1.08	migration z between -2 and 2; enough cells	0.6	5631
HMGN3 (high mobility group nucleosomal binding domain 3)	1	0.17	migration z between -2 and 2; enough cells	0.93	5929
OR2U1P (olfactory receptor family 2 subfamily U member 1 pseudogene)	1	-0.5	migration z between -2 and 2; enough cells	0.75	6725
GPR152 (G protein-coupled receptor 152)	1	-2.46 (active)	migration z below -2; enough cells	0.33	3384
GNB4 (G protein subunit beta 4)	1	-0.02	migration z between -2 and 2; enough cells	0.8	5788
JAK1 (Janus kinase 1)	1	0.1	migration z between -2 and 2; enough cells	0.82	5912
MAD2L1BP (MAD2L1 binding protein)	1	0.76	migration z between -2 and 2; enough cells	1.07	6382
NSUN5P1 (NSUN5 pseudogene 1)	1	0.26	migration z between -2 and 2; enough cells	0.96	4830
GSTT2B (glutathione S-transferase theta 2B)	1	1.03	migration z between -2 and 2; enough cells	1.16	6725
